The list shows a part of the results, in another mix than the full data. For some assays here: At the low end of the ranking the order means little. This is one part of the list. For some assays here: The exact form of the protein is not confirmed.
What was measured:
[1] = target: T1, ETS1 (UniProt P14921); test: DAPPL (digital affinity profiling via proximity ligation, sequencing); conditions: 10 mM Tris-HCl pH 7.5, 50 mM NaCl, 1 mM DTT, 4% glycerol, room temperature, 30 min; GST-TFs on glutathione beads, 16-mer random dsDNA library, 0.1% …; high values mean tight binding; double strand, one strand shown; scale: fold enrichment (6-mer frequency, TF over GST control)
T1 sequence: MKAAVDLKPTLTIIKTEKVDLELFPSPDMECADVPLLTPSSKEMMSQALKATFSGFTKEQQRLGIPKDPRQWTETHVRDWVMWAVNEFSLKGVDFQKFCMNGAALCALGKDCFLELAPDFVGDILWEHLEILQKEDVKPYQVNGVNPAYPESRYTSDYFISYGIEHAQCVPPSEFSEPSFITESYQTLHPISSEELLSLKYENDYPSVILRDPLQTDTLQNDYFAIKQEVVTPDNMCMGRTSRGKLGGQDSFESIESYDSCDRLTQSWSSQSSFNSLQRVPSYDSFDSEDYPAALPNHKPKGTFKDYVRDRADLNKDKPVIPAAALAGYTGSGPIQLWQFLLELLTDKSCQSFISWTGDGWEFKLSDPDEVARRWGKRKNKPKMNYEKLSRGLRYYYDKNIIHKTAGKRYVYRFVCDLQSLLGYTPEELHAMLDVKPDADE

[2] = target: T2, GABPA (UniProt Q06546); test: as above; conditions: 10 mM Tris-HCl pH 7.5, 50 mM NaCl, 1 mM DTT, 4% glycerol, room temperature, 30 min; GST-TFs on glutathione beads, 16-mer random dsDNA library, 0.1% …; high values mean tight binding; double strand, one strand shown; scale: fold enrichment (6-mer frequency, TF over GST control)
T2 sequence: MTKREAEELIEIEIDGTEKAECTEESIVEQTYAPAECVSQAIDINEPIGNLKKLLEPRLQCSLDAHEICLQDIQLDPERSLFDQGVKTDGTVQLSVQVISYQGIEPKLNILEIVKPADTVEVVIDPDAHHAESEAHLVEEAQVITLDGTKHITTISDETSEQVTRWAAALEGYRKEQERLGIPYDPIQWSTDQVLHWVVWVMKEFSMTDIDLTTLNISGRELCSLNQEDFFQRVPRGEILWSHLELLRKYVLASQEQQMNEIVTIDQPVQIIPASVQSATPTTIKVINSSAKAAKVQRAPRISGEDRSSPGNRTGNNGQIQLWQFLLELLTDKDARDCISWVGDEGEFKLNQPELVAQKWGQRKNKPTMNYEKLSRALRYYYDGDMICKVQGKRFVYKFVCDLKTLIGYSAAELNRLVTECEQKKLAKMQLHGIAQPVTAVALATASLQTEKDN

Sequence	binding signal [1]	binding signal [2]
AATAGG	1.09	
TGTCCT	1.52	
ATATCC	2.69	
GCACTC	1.2	
AGGACC	1.06	
TAGGTC	0.998	
TTCTGT	1.22	
CCATAC	1.21	
ACACCT	1.09	
CTCGCT	1.65	
GCGATC	1.07	
CTAGAT	1.18	
AAACGC	1.29	
TGACCA	1.19	
GCTAGT	1.06	
TGGCTC	1.37	
TCCTGC	1.56	
TTGTAA	1.39	
GTGACC	1.3	
TGCCCT	1.18	
GCCCGC	0.993	
AGCCTT	1.19	
CTCGAA	1.27	
CTGCTG	1.19	

Sequence	binding signal [1]	binding signal [2]
AATTTT	1.38	
ACACCC	1.1	
CACCTT	1.25	
TTGTCA	1.19	
AATCTC	1.25	
ATGCTG	1.12	
GTACAA	1.06	
AATTTC	1.77	
CCTAGC	1.24	
CGTACC	1.19	
CGTCAA	1.08	
TTACGC	1.11	
CAGGAA	1.53	
GGGAAA	0.992	
TCAAAC	1.22	
ACGCTT	1.39	
CATTAA	1.06	1.12
CGTCGA	1.09	0.975
CCTTGA	1.22	1.24
TTTGTT	1.27	1.31
ACCCTG	1.15	1.06
ATTGTT	1.38	1.55
TCATAA	1.04	1.03
AAACCG	1.09	1.07

Sequence	binding signal [1]	binding signal [2]
CAATAC	1.26	1.23
ATGTTG	1.23	1.22
TCTGGC	1.23	1.29
CGCTTG	1.02	1.09
GCTTAC	1.17	1.05
TCCGTA	1.48	1.59
AACCGC	1.13	1.1
ACGGAT	1.25	1.21
GAAATT	1.31	1.29
CGCCAC	1.04	1.04
CGTCCA	1.09	1.04
TTTCGG	1.16	1.14
TGGATC	0.953	0.955
CGCCCC	1.12	1.11
AAATCA	1.22	1.19
ACTGAA	1.24	1.24
GGTCTC	2.96	2.5
AGTGTT	1.05	1.14
CATCAC	1.2	1.18
CCTGAC	1.53	1.49
GAATTA	1.04	0.968
TTAATC	1.23	1.2
TCGATG	1.02	1.12
CGGTTC	1.11	1.19

Sequence	binding signal [1]	binding signal [2]
AGCGAC	1.14	1.09
TTTGCA	1.29	1.34
GGATCT	0.97	1.02
ATTCAA	1.46	1.4
TAGCAA	1.27	1.21
TTCCGG	5.3	5.16
ATGCCA	1.04	1.02
GGATTT	1.23	1.26
GTCTAT	0.967	0.986
CCGGTC	1.17	0.973
TTCGCG	1.1	0.97
CGAATT	1.23	1.27
GTACGA	1.06	1.14
TACGAC	1.39	1.29
GGTACA	1.08	0.965
ACCCGG	1.73	1.62
TGCTTG	1.25	1.11
AGCATC	0.964	1.03
TTCCGA	1.61	1.43
CAGATC	0.939	0.907
GTACCA	1.11	0.938
ATCCGT	0.923	0.908
TCCATT	1.37	1.3
GGCATT	1.13	1.04

Sequence	binding signal [1]	binding signal [2]
TAACGC	1.15	1.21
GTCCAT	1.17	0.99
TACACT	1.65	1.51
TCTCTT	1.46	1.45
CCGCAA	1.37	1.36
TGTTGG	0.858	0.846
TCAAGT	1.15	1.07
GTTATA	1.02	0.997
GTTGTA	1.1	0.941
TTGGCT	1.1	0.978
GTCCTT	1.3	1.28
GTATTG	1.1	1.04
GATACC	0.869	0.92
TAAGTC	0.892	0.921
ATATTC	1.26	1.24
ACCGGT	0.937	0.872
AAAGTA	1.16	1.17
GCCTGC	1.09	1.07
CAGCCC	1.17	1.06
TAACTG	1.25	1.24
ACGTTG	0.99	1.05
CAATTT	1.39	1.37
GGTTGT	0.938	0.783
GCCCCG	1.04	0.993

From PMC7862700
